Assay results taken from PubChem BioAssay AID1347423 (Functional Genomics Laboratory (NCATS/FGL), 2020).
In all, about 52,000 sequences went through this assay and about 210 (0.4%) were called active.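 Rule for the calls: active = gene whose silencing raises cell survival under the drug, median off-target-corrected z-score across its silencing RNAs 2 or more; inactive = the rest.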 The list shows a part of the results.

Assay: Resistance to Poly (ADP-Ribose) Polymerase inhibitor: Gene Identification via Genome-wide siRNA Screen
Details: mouse BRCA2 R2336H ES cells, olaparib, CellTiter-Glo viability; stronger effect = higher value
Outline: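 Genome-wide siRNA screen (3 siRNAs/gene, 20 nM) in mouse ES cells carrying hypomorphic BRCA2 R2336H; olaparib 500 nM added 48 h post-transfection, CellTiter-Glo viability 72 h later. Normalized to plate-median negative control; MAD z-scores, gene median, seed-adjusted.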

Sequence	z-score
GGUCCUGAAGAUACCAUCUTT against Olfr1377	inactive: -0.98
GGACAGUAGUUCUUUAUCUTT against 1200011I18Rik	inactive: -0.435
CGGCUGAUGCUUGACCUAATT against BC018242	inactive: 0.885
GCUAUAGACAAGGAGAGUATT against Galnt6	inactive: -1.15
GCCUUUUAAUAGAUGUCAUTT against 1110059P08Rik	inactive: -0.636
GGGCUAUGAGAAGUUGCUATT against AU067744	inactive: 0.495
GGUGUUGAGUGCACUACUGTT against LOC380969	inactive: 0.929
GGCAAAUUCUACUACAAGATT against Pms2	inactive: 0.181
GGAUGGAACAGACUAUAGUTT against 5330437I02Rik	inactive: 1.14
CCCACCAGCGGAAUUUGAUTT against C330005M16Rik	inactive: -0.8
GGCAAGUGCCCAAGUUUGUTT against Ifi35	inactive: -1.91
GCUUCAACAGUAAUAAUCGTT against 5930437A14Rik	inactive: 0.434
GGAGAGAAAGAAUUUCAUCTT against Chordc1	inactive: -0.00737
CCUAAUCUGGUAUACCAGATT against Slc7a1	inactive: -0.919
GCCAUCUUCGGUCAACUCUTT against Olfr969	inactive: -1.01
GGAAGAUCAUAGCAAAAGGTT against Casp3	inactive: -0.171
GGCAACUGUUGUAAAUCAATT against 2810471M23Rik	inactive: 0.58
GGCUGGAGAUCUCUCAAAGTT against 6330571D19Rik	inactive: 0.913
GGAGAAGAGCAUAAAUACATT against 2410137M14Rik	inactive: -2.01
GGAUACAUGUGGUGCCAAUTT against Banf1	inactive: -2.45
GGUGUUAAGACUCAGCUCATT against A930021H16Rik	inactive: -0.149
GCUCAUGGGUAUGAUCAAUTT against Sox5	inactive: -1.06
GGCCAAUCUAUGCUGUCCCTT against 3110001H15Rik	inactive: 0.147
GGCAAAAUCGUGAAAAUUCTT against Vwf	inactive: 0.814
GCUGCACGGUGAGUUUAAATT against Gpm6b	inactive: 1.53
GGGCUUCACCAUUAUCAUUTT against Ercc2	inactive: -1.99
CCCUCUCCAAUAUUCUUUATT against Olfr1116	inactive: 0.139
CCUCGGAUUGUUCAGACCUTT against Plxna4	inactive: -0.466

Part of the list above in a different format.
Sequence | z-score
GGUCCUGAAGAUACCAUCUTT against Olfr1377 | inactive: -0.98
GGACAGUAGUUCUUUAUCUTT against 1200011I18Rik | inactive: -0.435
